Results taken from patent publication US10610608B2 (Rochester Institute of Technology, priority 2013, dated 2020).

Experiment: general procedure: solution-phase peptide synthesis; TBTU/HOBt/DIPA
Conditions: conjugation step

Substance | conjugation yield
c(RGDyK)-SMCC-DLys(Cy5.5)-Lys(Gd-DOTA)-NH2 | 36.7%
c(RGDyK)-SMCC-DLys(Gd-DOTA)-Lys(Gd-DOTA)-NH2 | 38.1%
c(RGDyK)-SMCC-Lys(Gd-DOTA)-NH2 | 34.9.0%
c(RGDyK)-Su-Lys(Cy5.5)-Lys(Gd-DOTA)-NH2 | 45%
c(RGDyK)-Su-Lys(Gd)—NH2 | 12.4%
